Results from publication PMC7660924.
No constants are given. Whether binding was seen depends on the method and setting. Some entries that bind do so weakly or less than the wild type. Sequences can lack the tags named with a protein.

Sequences of proteins named here, by UniProt entry; tags and fusion partners are left off. Residues count along the entry.
UniProt Q94CL7, residues 208-362: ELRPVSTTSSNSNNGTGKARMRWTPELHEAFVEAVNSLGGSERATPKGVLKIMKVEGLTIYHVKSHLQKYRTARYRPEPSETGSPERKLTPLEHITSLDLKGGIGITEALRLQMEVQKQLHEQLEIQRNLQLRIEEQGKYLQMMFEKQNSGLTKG

Assays:
[1] = target: truncated PHOSPHATE STARVATION RESPONSE 1 (PHR1) carrying the GARP domain and CCD (208-362 aa), yeast two-hybrid fusion (Arabidopsis thaliana) (UniProt Q94CL7); assay: two-hybrid; yeast strain AH109; GAL4 activation domain fusions as prey, GAL4 DNA-binding domain fusions as bait; growth on SD/-Leu/-Trp/-His/-Ade, 30°C, 5 d
[2] = target: T1, HRS1 HOMOLOG 4 (HHO4), full length, yeast two-hybrid fusion (Arabidopsis thaliana) (UniProt Q9ZQ85); assay: as above
T1 sequence: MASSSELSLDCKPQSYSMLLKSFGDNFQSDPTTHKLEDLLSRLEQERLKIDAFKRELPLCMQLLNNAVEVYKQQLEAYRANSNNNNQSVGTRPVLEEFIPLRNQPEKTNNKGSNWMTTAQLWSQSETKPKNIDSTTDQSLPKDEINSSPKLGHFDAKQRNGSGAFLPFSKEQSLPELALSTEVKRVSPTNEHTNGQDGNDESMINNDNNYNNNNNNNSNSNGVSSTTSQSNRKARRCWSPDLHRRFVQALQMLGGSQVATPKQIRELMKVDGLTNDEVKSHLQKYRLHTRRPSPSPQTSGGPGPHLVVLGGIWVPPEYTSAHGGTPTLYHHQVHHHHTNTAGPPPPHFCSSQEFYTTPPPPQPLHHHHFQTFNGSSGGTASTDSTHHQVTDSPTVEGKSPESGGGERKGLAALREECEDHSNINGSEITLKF

B1: NIGT1.4, full length, yeast two-hybrid fusion (protein, UniProt Q9FX67 1-344)
chain: MIKKFSNMDYNQKRERCGQYIEALEEERRKIHVFQRELPLCLDLVTQAIEACKRELPEMTTENMYGQPECSEQTTGECGPVLEQFLTIKDSSTSNEEEDEEFDDEHGNHDPDNDSEDKNTKSDWLKSVQLWNQPDHPLLPKEERLQQETMTRDESMRKDPMVNGGEGRKREAEKDGGGGRKQRRCWSSQLHRRFLNALQHLGGPHVATPKQIREFMKVDGLTNDEVKSHLQKYRLHTRRPRQTVPNNGNSQTQHFVVVGGLWVPQSDYSTGKTTGGATTSSTTTTTGIYGTMAAPPPPQWPSHSNYRPSIIVDEGSGSHSEGVVVRCSSPAMSSSTRNHYVKNN
- binding [1]: no binding
- binding [2]: binds
